# Laboratory results published in article PMC12914105.
# Protein sequences, listed by entry. Tags and fused reporters are not part of them. Residues count along the entry.
# UniProt P14625, residues 22-803: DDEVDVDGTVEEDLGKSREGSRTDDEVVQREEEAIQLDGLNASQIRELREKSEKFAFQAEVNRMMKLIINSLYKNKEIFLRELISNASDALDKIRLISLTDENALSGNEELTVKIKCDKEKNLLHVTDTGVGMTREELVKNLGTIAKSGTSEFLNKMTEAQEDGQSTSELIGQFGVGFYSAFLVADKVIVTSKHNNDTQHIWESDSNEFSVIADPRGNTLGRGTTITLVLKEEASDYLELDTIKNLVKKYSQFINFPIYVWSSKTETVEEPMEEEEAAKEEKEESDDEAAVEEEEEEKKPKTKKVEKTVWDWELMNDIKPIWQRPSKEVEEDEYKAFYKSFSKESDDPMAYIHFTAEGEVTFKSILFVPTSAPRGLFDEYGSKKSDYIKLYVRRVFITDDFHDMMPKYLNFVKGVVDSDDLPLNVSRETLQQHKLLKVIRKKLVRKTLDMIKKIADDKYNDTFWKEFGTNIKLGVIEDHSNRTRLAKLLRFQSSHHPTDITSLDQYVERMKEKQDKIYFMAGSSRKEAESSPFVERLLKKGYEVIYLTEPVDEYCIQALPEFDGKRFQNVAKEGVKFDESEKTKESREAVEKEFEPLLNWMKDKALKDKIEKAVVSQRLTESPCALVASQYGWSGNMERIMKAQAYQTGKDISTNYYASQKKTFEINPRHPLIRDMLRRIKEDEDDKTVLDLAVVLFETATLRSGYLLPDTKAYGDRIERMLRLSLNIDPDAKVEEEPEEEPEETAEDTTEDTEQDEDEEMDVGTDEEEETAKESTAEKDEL
# UniProt P08134: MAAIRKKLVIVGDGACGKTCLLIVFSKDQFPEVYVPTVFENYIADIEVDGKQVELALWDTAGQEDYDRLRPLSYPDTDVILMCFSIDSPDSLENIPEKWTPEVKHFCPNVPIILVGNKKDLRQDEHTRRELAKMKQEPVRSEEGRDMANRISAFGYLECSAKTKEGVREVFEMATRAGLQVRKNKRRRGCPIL
# Biological target: heat shock protein 90 beta family member 1 (HSP90B1) (human (endogenous in LN229)) (UniProt P14625)
# Assay: affinity purification with mass spectrometry; HSP90B1 immunoprecipitated from cell lysate, silver staining of the sample, LC-MS of the bound proteins; cell line not stated
substance,measurement,value
ras homolog family member C (RhoC) (from UniProt P08134 1-193),binding,binds

# These are yes or no findings as the source states them, for the method shown. Binding seen in cells or lysates may run through a third protein. These calls come from enrichment with a bait or labelling near it, and not all partners need be listed.
